{"source": "PubChem BioAssay AID540276", "about": "(National Center for Advancing Translational Sciences (NCATS), 2011)", "note": "“And” between values parts separate entries of the source, which are not always exact repeats. Identical values can stand only once. The whole screen tested about 300,000 compounds, of which about 5,400 (1.8%) were called active. The shares of active, inactive and inconclusive entries below differ from those in the screen. Calls come from the whole dose curve; tested in HEK293 cells. Where the call is inconclusive, the potency comes from a doubtful curve fit. Potency is the fitted concentration of half-maximal effect."}
{"test": "qHTS for inhibitors of binding or entry into cells for Marburg Virus", "conditions": "Marburg virus pseudotyped entry inhibition, cell reporter; series mostly up to 37.8 µM"}
{"smiles": "CCOCc1[nH]c(=S)[nH]c(=O)c1Cc1ccc(OCC)cc1", "Potency": "inactive"}
{"smiles": "CCc1cccc(C)c1NC(=O)C(c1ccccc1)N1CCC1=O", "note": "(centres undefined)", "Potency": "inconclusive: 4.11 µM [inhibitor, partial curve, poor fit]"}
{"smiles": "COc1ccc(CN(Cc2cc3cc(C)ccc3[nH]c2=O)C(=O)N(C)C)cc1", "Potency": "inconclusive: 6.51 µM [inhibitor, partial curve, poor fit]"}
{"smiles": "CC(=O)Nc1ccc(S(=O)(=O)N2CCC(c3nc4c(nnn4Cc4ccccc4Cl)c(=O)[nH]3)CC2)cc1", "Potency": "inactive"}
{"smiles": "Cc1cc(C)c2c(N)c(C(=O)N/N=C/c3cccs3)sc2n1", "Potency": "inconclusive: 3.55 µM [activator, partial curve, poor fit]"}
{"smiles": "COc1cc(SC)ccc1C(=O)OCC(=O)NC1CC1", "Potency": "inactive"}
{"smiles": "CN1CCN(C2(CNC(=O)COc3ccc(C(C)(C)C)cc3)CCCCC2)CC1", "Potency": "inconclusive: 35.5 µM [inhibitor, single point]"}
{"smiles": "CC(C)CNS(=O)(=O)c1ccc(S(=O)(=O)N2CCCN(Cc3ccccc3)C2)cc1", "Potency": "inconclusive: 29.1 µM [inhibitor, single point]"}
{"smiles": "CC(C)CC1CC(=O)OC1(C)C(=O)CSc1nc2ccccc2s1", "note": "(centres undefined)", "Potency": "inconclusive: 35.5 µM [activator, single point]"}
{"smiles": "COc1cc(C=C(C#N)C#N)cc(O)c1O", "Potency": "inactive"}
{"smiles": "OC(COCc1ccco1)CN1CCN(C(c2ccccc2)c2ccccc2)CC1", "note": "(centres undefined)", "Potency": "inconclusive: 7.94 µM [inhibitor, partial curve]"}
{"smiles": "CSCCC(NC(=O)COc1ccccc1)C(=O)O", "note": "(centres undefined)", "Potency": "inconclusive: 35.5 µM [activator, partial curve, poor fit]"}
{"smiles": "COc1ccccc1OCc1ccc(C(=O)Nc2ccccc2F)cc1", "Potency": "inconclusive: 6.31 µM [activator, full curve, poor fit]"}
{"smiles": "CCOC(CCn1c(SCc2ccc([N+](=O)[O-])cc2)nc2ccccc2c1=O)OCC", "Potency": "inconclusive: 0.316 µM [inhibitor, partial curve, poor fit]"}
{"smiles": "O=C(N/N=C/c1ccc(Br)cc1)c1ccc(Br)o1", "Potency": "inconclusive: 3.98 µM [activator, partial curve, poor fit]"}
{"smiles": "COc1ccc(NC(=S)N2CCC(NC(=O)c3ccco3)CC2)cc1", "Potency": "inconclusive: 14.1 µM [activator, partial curve, poor fit]"}
{"smiles": "CN(C)C(=S)NC1CCS(=O)(=O)C1", "note": "(centres undefined)", "Potency": "inactive"}
{"smiles": "CCOC(=O)c1sc(Nc2cccc(Cl)c2)nc1C", "Potency": "inactive"}
{"smiles": "NC(=O)C1CCCN(C(=O)c2ccc(-c3cccc(Cl)c3Cl)o2)C1", "note": "(centres undefined)", "Potency": "inconclusive: 3.55 µM [activator, partial curve, poor fit]"}
{"smiles": "CC(=O)Nc1ccc(NC(=O)c2ccc(N(Cc3ccccc3C)S(C)(=O)=O)cc2)cc1", "Potency": "inconclusive: 39.8 µM [inhibitor, partial curve, poor fit]"}
{"smiles": "CCN(CC)c1nc(Oc2ccc(C(=O)NN)cc2)nc(Oc2ccc(C(=O)NN)cc2)n1", "Potency": "inactive"}
{"smiles": "N#Cc1cc(-c2ccccc2)nc(Oc2ccc(Cl)cc2)n1", "Potency": "inactive"}
{"smiles": "Cc1cccc(NC(c2ccc(C)s2)c2ccc3ccc(C)nc3c2O)n1", "note": "(centres undefined)", "Potency": "inactive"}
{"smiles": "O=C(CCNc1cccc(F)c1)c1cc2ccccc2o1", "Potency": "inactive"}
{"smiles": "CC(NC(=O)/C=C/c1ccco1)c1nc2ccccc2n1Cc1ccccc1F", "note": "(centres undefined)", "Potency": "inactive"}
{"smiles": "COc1cccc(NC(=O)C2CCN(S(=O)(=O)c3c(C)noc3/C=C/c3cccs3)CC2)c1", "Potency": "inconclusive: 35.5 µM [inhibitor, single point]"}
{"smiles": "COC(=O)CCc1c[nH]c2ccc([N+](=O)[O-])cc12", "Potency": "inconclusive: 35.5 µM [activator, single point]"}
{"smiles": "COC(=O)c1[nH]c2ccc(C)cc2c1NC(=O)CN1CCN(C(=O)c2ccccc2)CC1", "Potency": "inconclusive: 7.94 µM [inhibitor, partial curve, poor fit]"}
{"smiles": "O=C(COc1ccccc1Cl)Nc1nc(-c2ccc(F)cc2)ns1", "Potency": "inactive"}
{"smiles": "Nc1nc(CSc2ccccn2)nc(Nc2ccccc2)n1", "Potency": "inconclusive: 2.91 µM [activator, full curve, poor fit]"}
{"smiles": "Cc1cc2cc(NC(=O)c3ccco3)ccc2[nH]1", "Potency": "inconclusive: 6.31 µM [activator, single point]"}
{"smiles": "Cc1ccc(-n2nnnc2SCC(=O)NCC2(N3CCOCC3)CCCCC2)c(C)c1", "Potency": "inconclusive: 25.1 µM [inhibitor, partial curve, poor fit]"}
{"smiles": "COc1ccc(/C=C/c2c([N+](=O)[O-])c(=O)n(C)c(=O)n2C)cc1O", "Potency": "inconclusive: 6.51 µM [inhibitor, partial curve, poor fit]"}
{"smiles": "Cc1cccc(N2CC(C(=O)O)CC2=O)c1", "note": "(centres undefined)", "Potency": "inactive"}
{"smiles": "CCOc1cccc2sc(N(CCN(C)C)C(=O)c3ccc4ccccc4c3)nc12", "Potency": "inconclusive: 35.5 µM [inhibitor, partial curve, poor fit]"}
{"smiles": "Cc1c(Cc2c(C)n(C)n(-c3ccccc3)c2=O)c(=O)n(-c2ccccc2)n1C", "Potency": "inconclusive: 0.366 µM [activator, full curve]"}
{"smiles": "CCc1cc(C(=O)NCc2ccc(F)cc2)no1", "Potency": "inactive"}
{"smiles": "CN(c1ccccc1)S(=O)(=O)c1cccc(NC(=O)Cc2c(F)cccc2Cl)c1", "Potency": "inconclusive: 35.5 µM [inhibitor, single point]"}
{"smiles": "COc1ccccc1/C=C/C1(C(=O)NC2CCCC2)CC(=O)N1c1ccc(F)cc1", "note": "(centres undefined)", "Potency": "active: 5.8 µM"}
{"smiles": "CC(C)[C@@]1(NC(=O)[C@@H]2C[C@@H]3c4cccc5[nH]cc(c45)C[C@H]3N(C)C2)O[C@@]2(O)C3CCCN3C(=O)[C@H](Cc3ccccc3)N2C1=O", "note": "(some centres undefined)", "Potency": "active: 5.62 µM"}
{"smiles": "COc1ccc(S(=O)(=O)N(Cc2ccccc2)c2ccccc2C(=O)O)cc1", "Potency": "inconclusive: 1.26 µM [inhibitor, single point]"}
{"smiles": "CCOc1ccccc1OCCCC(=O)Nc1nc2ccccc2[nH]1", "Potency": "inconclusive: 35.5 µM [inhibitor, single point]"}
{"smiles": "O=C(COc1ccccc1)Nc1nc2ccccc2[nH]1", "Potency": "inconclusive: 29.1 µM [activator, partial curve, poor fit]"}
{"smiles": "COc1ccc(Cl)cc1C(=O)NCC(c1ccco1)N(C)C", "note": "(centres undefined)", "Potency": "inactive"}
{"smiles": "N#Cc1cccc(NC(=O)COC(=O)c2ccccc2Sc2ccccc2C#N)c1", "Potency": "inconclusive: 35.5 µM [inhibitor, single point]"}
{"smiles": "O=C1c2ccccc2C(=O)N1CN(C(=O)COc1ccccc1)c1ccccc1", "Potency": "inconclusive: 18.3 µM [activator, partial curve, poor fit]"}
{"smiles": "C1CCC2=C(C1)CN1CCCC1=N2", "Potency": "inactive"}
{"smiles": "O=S(=O)(Nc1ccc(N2CCCCC2)cc1)c1cccs1", "Potency": "inactive"}
{"smiles": "COc1ccc(NC(=O)c2cc(C)nc3ccccc23)cc1S(=O)(=O)N1CCOCC1", "Potency": "inactive"}
{"smiles": "CCCCn1c(N)c(N(CCC(C)C)C(=O)c2cc(CC)c(C)s2)c(=O)[nH]c1=O", "Potency": "inconclusive: 35.5 µM [inhibitor, single point]"}
{"smiles": "CCc1ccc2oc(-c3ccc(NC(C)=O)cc3)nc2c1", "Potency": "inconclusive: 6.31 µM [inhibitor, full curve, poor fit]"}
{"smiles": "Cc1cccc(C)c1NC(=O)NC1(C(=O)NCC2CCCO2)CCCCC1", "note": "(centres undefined)", "Potency": "inactive"}
{"smiles": "CCOC(=O)C1Nc2ccc(C(=O)O)cc2C2C=CCC12", "note": "(centres undefined)", "Potency": "inactive"}
{"smiles": "CC(=O)c1ccc(N(C(=O)c2ccco2)C(C(=O)NC2CCCC2)c2cccs2)cc1", "note": "(centres undefined)", "Potency": "inactive"}
{"smiles": "CC(=O)NC(Cc1ccc(F)cc1)C(=O)NC1CCN(C(=O)NCc2ccccc2)CC1", "note": "(centres undefined)", "Potency": "inconclusive: 3.55 µM [activator, single point]"}
{"smiles": "CCOc1cc(/C=N/N=C2/NC(=O)C(CC(=O)O)S2)ccc1OCc1ccccc1Cl", "note": "(centres undefined)", "Potency": "inconclusive: 12.6 µM [inhibitor, partial curve, poor fit]"}
{"smiles": "O=[N+]([O-])c1cc(/C=N/N/C(=N/c2ccccn2)c2ccccn2)ccc1O", "Potency": "inconclusive: 14.1 µM [inhibitor, single point]"}
{"smiles": "COc1ccccc1OCc1nc2ccccc2s1", "Potency": "inconclusive: 10 µM [inhibitor, partial curve, poor fit]"}
{"smiles": "CN(Cc1ccc(-n2cccn2)cc1)C(=O)c1cnn2c1NC(c1ccco1)CC2C(F)(F)F", "note": "(centres undefined)", "Potency": "inconclusive: 11.2 µM [inhibitor, partial curve, poor fit]"}
{"smiles": "O=C(Nc1ccccc1[N+](=O)[O-])C1COc2ccccc2O1", "note": "(centres undefined)", "Potency": "inconclusive: 25.1 µM [inhibitor, single point]"}
{"smiles": "O=c1c2c(nc3cc(-c4ccc(F)cc4)[nH]n13)CCC2", "Potency": "inconclusive: 31.6 µM [inhibitor, single point]"}
{"smiles": "COc1cc(C(=O)NCc2nc(-c3ccc(Cl)cc3)no2)cc(OC)c1OC", "Potency": "inconclusive: 3.55 µM [activator, single point]"}
{"smiles": "Nc1nc(CSc2n[nH]c(-c3ccccc3)n2)nc(Nc2ccccc2)n1", "Potency": "inconclusive: 14.1 µM [inhibitor, partial curve, poor fit]"}
{"smiles": "CCC(OC(=O)c1nsc(Cl)c1Cl)C(=O)NCC1CCCO1", "note": "(centres undefined)", "Potency": "inactive"}
{"smiles": "N#CCCN1CCN(C2=NC(=O)/C(=C\\c3cccs3)S2)CC1", "Potency": "inconclusive: 6.31 µM [activator, partial curve, poor fit]"}
{"smiles": "Cc1ccc2c(c1)/C(=C/c1ccco1)C(=O)N2", "Potency": "inconclusive: 5.62 µM [inhibitor, single point]"}
{"smiles": "COc1cc(SC)ccc1C(=O)OCC(=O)NC(=O)NC(C)C", "Potency": "inactive"}
{"smiles": "CCOc1ccc(CCNc2nc3ccccc3n3cnnc23)cc1OCC", "Potency": "inconclusive: 11.2 µM [inhibitor, partial curve, poor fit]"}
